Laboratory results taken from paper PMC8893695, “The microprotein Nrs1 rewires the G1/S transcriptional machinery during nitrogen limitation in budding yeast” (PLoS Biology, 2022).

What was measured:
[1] = biological target: T1, Swi4^3FLAG (S. cerevisiae) (UniProt P25302); experiment: co-IP; Swi4^3FLAG or Swi6^3FLAG captured on anti-FLAG M2 resin from extracts of cells treated with 200 nM rapamycin (2 h; 3 h in the replicate); all alleles from endogenous promoters; blots with anti-FLAG and anti-MYC
T1 sequence: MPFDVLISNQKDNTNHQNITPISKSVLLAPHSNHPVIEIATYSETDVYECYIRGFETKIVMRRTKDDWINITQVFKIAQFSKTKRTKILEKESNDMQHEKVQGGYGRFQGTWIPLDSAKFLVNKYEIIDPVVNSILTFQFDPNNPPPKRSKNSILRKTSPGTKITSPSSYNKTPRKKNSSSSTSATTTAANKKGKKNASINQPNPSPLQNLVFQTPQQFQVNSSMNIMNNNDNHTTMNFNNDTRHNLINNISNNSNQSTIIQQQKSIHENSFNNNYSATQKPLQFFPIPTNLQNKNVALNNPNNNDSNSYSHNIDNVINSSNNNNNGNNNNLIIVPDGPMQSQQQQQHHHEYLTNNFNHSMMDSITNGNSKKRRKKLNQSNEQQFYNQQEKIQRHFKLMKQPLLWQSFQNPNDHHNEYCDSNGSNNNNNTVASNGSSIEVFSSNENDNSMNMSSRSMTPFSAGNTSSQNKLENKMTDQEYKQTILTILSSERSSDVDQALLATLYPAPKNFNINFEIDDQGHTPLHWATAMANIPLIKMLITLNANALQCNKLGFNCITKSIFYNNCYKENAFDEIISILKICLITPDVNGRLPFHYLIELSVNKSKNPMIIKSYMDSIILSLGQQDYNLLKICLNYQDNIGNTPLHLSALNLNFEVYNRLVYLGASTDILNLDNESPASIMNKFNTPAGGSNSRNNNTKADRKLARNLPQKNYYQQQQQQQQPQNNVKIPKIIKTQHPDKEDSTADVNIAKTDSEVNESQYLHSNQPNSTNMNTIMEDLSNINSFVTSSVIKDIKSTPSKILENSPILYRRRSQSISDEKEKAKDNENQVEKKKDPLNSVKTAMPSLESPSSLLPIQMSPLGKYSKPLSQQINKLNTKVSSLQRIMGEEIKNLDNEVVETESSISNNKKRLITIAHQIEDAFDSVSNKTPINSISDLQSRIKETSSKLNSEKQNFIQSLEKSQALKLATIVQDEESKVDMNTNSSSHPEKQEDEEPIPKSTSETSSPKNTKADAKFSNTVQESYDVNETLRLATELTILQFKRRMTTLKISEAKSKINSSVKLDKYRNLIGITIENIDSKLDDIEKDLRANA

[2] = biological target: T2, Swi6^3FLAG (S. cerevisiae) (UniProt P09959); experiment: as above
T2 sequence: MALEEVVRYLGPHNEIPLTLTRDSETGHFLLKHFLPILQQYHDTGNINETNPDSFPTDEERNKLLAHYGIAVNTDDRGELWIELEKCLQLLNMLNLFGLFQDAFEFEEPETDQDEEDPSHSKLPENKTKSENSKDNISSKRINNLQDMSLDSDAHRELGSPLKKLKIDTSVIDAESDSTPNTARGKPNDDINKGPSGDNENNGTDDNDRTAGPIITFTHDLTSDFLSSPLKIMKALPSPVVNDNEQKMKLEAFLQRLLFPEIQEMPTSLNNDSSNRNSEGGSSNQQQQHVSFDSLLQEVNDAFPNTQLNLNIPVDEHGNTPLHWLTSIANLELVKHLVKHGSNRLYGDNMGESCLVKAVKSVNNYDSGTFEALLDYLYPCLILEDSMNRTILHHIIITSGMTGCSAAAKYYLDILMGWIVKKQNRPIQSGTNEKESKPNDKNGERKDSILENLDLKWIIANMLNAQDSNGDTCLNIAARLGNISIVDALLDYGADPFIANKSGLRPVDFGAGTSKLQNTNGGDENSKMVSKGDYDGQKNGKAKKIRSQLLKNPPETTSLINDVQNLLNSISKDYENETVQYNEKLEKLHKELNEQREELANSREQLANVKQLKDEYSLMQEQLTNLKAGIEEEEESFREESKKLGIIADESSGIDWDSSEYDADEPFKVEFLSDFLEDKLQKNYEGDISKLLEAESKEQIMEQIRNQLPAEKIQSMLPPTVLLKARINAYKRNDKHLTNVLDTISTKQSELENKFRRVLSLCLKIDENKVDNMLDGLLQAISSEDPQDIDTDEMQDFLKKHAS

[3] = biological target: ^FLAGSwi4-Swi6-^GSTNrs1 complex (S. cerevisiae); experiment: pull-down; recombinant ^HAWhi5 or ^GSTNrs1 titrated into preformed ^FLAGSwi4-Swi6-^GSTNrs1 or ^FLAGSwi4-Swi6-^HAWhi5 complexes immobilised on anti-FLAG resin; immunoblot and Coomassie; both purified
[4] = biological target: Nrs1^13MYC (S. cerevisiae); experiment: co-IP; Nrs1^13MYC or Whi5^13MYC captured on anti-MYC resin from cultures untreated or treated with 200 nM rapamycin for 3 h; blots with polyclonal anti-Swi4 and anti-Swi6

Molecule: Nrs1^13MYC (S. cerevisiae)
- binding [1]: binds
- binding [2]: binds

B1: recombinant ^HAWhi5 (natural protein, S. cerevisiae, UniProt Q12416 1-295, looked up)
chain: MSLRTPKRSRTSDEQEQEQEQEQVQNPDTHVNNEHQQRPGPTTLLSTPVRLKNGFGTPSPPSPPGITKSITKSRRRPSTTSLQGIFMSPVNKRRVGITAHGRVYDHNDDGHESESEDDENEEENENQKKYDGHVSMPLLPPTTPKSRRSEVFLSPSPRLRSPPTAARRSTGERPIREISHTLRTRLNYALVKLQNGWTDKTLPELETELAPAVQTPPRRYHNRFPDSADAGTSAHTAFLQALGGHPPREEATAVETLMLLSSPTKKQQHRPVPATSAGEPTDETEPESDTEVETS
notes: Whi5, S. cerevisiae; source: recombinant
- binding [3]: binds

B2: Swi4 (protein, UniProt P25302 1-1093)
chain: T1 sequence
- binding [4]: binds

B3: Swi6 (protein, UniProt P09959 1-803)
chain: T2 sequence
- binding [4]: binds

No constants are given. Whether binding was seen depends on the method and setting. Binding can be weak; no strength is given. For some assays here: In cells and extracts the contact can be indirect. For some assays here: Sequences can lack the tags named with a protein.
